Reference: article PMC10363120
Results are given in words; binding and its absence hold for the method and conditions named. For some of these results: Binding seen in cells or lysates may run through a third protein. Some results given as binding are weak or reduced against the parent protein; the word gives no strength. For some of these results: Where a sequence is shown, tags or fusion partners need not be part of it.

Protein sequences, listed by entry. Tags and fused reporters are not part of them.
UniProt P29351: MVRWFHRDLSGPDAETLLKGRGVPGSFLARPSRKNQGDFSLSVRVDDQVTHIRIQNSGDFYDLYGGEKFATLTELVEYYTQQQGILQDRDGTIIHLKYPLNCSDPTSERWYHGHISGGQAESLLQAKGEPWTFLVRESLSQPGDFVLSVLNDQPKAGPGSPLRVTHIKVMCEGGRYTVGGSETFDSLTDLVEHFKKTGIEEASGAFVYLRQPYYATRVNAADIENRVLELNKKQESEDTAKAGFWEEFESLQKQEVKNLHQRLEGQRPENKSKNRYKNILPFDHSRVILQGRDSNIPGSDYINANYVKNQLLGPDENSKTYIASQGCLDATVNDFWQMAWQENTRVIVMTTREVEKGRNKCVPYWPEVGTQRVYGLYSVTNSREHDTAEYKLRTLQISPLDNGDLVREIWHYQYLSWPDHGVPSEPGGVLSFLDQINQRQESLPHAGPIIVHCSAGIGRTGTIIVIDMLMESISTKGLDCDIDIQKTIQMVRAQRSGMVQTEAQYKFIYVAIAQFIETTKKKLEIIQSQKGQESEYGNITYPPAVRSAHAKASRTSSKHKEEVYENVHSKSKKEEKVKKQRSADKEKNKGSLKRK

Assays:
[1] = target: T1, Paired immunoglobulin-like receptor B (PirB) on monocyte-derived macrophages (mouse (endogenous in mouse MDMs)) (UniProt P97484); test: co-IP; endogenous PirB and SHP-1/2 in mouse MDMs, with or without rA8 treatment
T1 sequence: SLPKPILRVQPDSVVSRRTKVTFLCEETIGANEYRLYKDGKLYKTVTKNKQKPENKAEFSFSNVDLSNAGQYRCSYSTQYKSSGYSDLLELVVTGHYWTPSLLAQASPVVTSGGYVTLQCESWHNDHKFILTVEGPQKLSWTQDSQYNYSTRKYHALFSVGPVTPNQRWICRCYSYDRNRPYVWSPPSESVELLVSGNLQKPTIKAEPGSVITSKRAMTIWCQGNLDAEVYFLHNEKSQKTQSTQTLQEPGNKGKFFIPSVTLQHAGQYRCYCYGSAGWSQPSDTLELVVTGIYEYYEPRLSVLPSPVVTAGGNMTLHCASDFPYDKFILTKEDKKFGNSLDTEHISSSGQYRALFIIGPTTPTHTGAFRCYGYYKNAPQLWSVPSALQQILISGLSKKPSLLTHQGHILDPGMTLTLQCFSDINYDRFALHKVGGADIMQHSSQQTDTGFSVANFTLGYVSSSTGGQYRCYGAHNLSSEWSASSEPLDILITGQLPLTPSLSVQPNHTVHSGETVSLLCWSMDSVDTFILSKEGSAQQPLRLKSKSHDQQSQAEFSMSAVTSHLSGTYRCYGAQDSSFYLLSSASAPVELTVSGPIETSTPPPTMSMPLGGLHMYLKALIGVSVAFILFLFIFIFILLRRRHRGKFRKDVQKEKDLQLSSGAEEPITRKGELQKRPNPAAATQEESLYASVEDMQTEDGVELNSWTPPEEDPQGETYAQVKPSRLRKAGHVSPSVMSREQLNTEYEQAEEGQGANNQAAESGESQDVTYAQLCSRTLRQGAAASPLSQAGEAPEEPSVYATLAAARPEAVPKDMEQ

[2] = target: T2, GST-PirB ectodomain (mouse) (UniProt P97484); test: pull-down; in vitro GST pull-down (Pierce GST Protein Interaction Pull-Down Kit); GST-PirB ectodomain as bait, purified Flag-tagged ANGPTL8 proteins; immunoblot with anti-GST, anti-His, anti-Flag; both purified
T2 sequence: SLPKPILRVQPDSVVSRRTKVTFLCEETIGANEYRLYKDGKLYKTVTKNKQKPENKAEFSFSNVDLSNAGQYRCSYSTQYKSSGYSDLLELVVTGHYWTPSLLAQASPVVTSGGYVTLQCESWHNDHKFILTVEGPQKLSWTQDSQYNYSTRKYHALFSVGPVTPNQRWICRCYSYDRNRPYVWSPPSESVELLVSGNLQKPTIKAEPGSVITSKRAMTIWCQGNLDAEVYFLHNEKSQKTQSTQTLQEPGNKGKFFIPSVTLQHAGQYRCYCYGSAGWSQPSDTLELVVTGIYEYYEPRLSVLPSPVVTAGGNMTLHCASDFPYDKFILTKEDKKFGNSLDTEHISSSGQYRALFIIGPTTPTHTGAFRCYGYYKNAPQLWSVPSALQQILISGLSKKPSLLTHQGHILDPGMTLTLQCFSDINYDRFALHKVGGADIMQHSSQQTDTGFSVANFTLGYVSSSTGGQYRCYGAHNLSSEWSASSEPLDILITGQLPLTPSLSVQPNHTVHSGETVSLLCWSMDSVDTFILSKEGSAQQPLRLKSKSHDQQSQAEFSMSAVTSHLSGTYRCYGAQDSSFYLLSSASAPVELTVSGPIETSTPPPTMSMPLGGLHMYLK

[3] = target: T1, Paired immunoglobulin-like receptor B (PirB) on monocyte-derived macrophages (mouse (endogenous in mouse MDMs)); test: co-IP; mouse MDMs treated with exogenous Flag-tagged rA8; lysed in Co-IP buffer (pH 7.5, 1% Triton X-100, 150 mM NaCl, 20 mM Tris, 1 mM EDTA); IP with anti-Flag or anti-PirB overnight at 4 °C, Protein A/G, western blot; only the binder purified
[4] = target: T3, PirB ectodomain (22-643), expressed from pcDNA3.1-myc (mouse) (UniProt P97484); test: co-IP; cells transiently transfected with pcDNA3.1-flag ANGPTL8 constructs and pcDNA3.1-myc PirB ectodomain; lysed after 24 h in 1% Triton X-100, 150 mM NaCl, 20 mM Tris pH 7.5, 1 mM EDTA
T3 sequence: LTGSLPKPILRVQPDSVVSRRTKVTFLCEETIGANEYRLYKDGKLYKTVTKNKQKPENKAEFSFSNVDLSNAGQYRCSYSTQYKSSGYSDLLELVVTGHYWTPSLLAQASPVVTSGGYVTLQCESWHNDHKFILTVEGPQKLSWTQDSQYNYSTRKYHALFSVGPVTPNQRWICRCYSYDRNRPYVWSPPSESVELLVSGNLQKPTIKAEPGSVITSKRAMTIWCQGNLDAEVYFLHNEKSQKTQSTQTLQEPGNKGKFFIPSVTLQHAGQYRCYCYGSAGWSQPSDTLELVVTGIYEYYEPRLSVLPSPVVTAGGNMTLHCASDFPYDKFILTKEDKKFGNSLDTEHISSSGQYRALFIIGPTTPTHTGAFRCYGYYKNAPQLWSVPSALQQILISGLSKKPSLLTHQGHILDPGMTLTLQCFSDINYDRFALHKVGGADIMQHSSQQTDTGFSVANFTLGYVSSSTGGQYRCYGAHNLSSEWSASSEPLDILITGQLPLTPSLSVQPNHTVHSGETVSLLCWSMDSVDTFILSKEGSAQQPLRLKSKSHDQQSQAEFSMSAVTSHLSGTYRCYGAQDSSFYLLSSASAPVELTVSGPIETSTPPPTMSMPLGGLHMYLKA

[5] = target: T4, recombinant ANGPTL8 protein (Flag-tagged) (UniProt Q8R1L8); test: receptors fishing experiment; receptors on MDMs fished with ANGPTL8; told only in the discussion
T4 sequence: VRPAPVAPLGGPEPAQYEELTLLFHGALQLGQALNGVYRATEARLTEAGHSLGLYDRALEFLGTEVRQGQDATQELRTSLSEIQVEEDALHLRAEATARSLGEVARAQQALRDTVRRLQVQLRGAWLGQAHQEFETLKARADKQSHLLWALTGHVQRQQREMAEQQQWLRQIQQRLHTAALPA

Molecule: SHP-1 (from UniProt P29351 1-595) (enzyme)
- binding [1]: binds

B1: recombinant ANGPTL8 protein (Flag-tagged) (ligand, UniProt Q8R1L8 16-198)
chain: VRPAPVAPLGGPEPAQYEELTLLFHGALQLGQALNGVYRATEARLTEAGHSLGLYDRALEFLGTEVRQGQDATQELRTSLSEIQVEEDALHLRAEATARSLGEVARAQQALRDTVRRLQVQLRGAWLGQAHQEFETLKARADKQSHLLWALTGHVQRQQREMAEQQQWLRQIQQRLHTAALPA
- binding [2]: binds
- binding [3]: binds

B2: full-length ANGPTL8 (16-198), Flag-tagged, expressed from pcDNA3.1-flag (ligand, UniProt Q8R1L8 16-198)
chain: VRPAPVAPLGGPEPAQYEELTLLFHGALQLGQALNGVYRATEARLTEAGHSLGLYDRALEFLGTEVRQGQDATQELRTSLSEIQVEEDALHLRAEATARSLGEVARAQQALRDTVRRLQVQLRGAWLGQAHQEFETLKARADKQSHLLWALTGHVQRQQREMAEQQQWLRQIQQRLHTAALPA
- binding [4]: binds

B3: truncated ANGPTL8 A130-198 (CC-like domain), Flag-tagged (domain or fragment, UniProt Q8R1L8 130-198)
chain: VRRLQVQLRGAWLGQAHQEFETLKARADKQSHLLWALTGHVQRQQREMAEQQQWLRQIQQRLHTAALPA
- binding [4]: binds

B4: Paired immunoglobulin-like receptor B (PirB) on monocyte-derived macrophages (receptor, UniProt P97484 25-841)
chain: SLPKPILRVQPDSVVSRRTKVTFLCEETIGANEYRLYKDGKLYKTVTKNKQKPENKAEFSFSNVDLSNAGQYRCSYSTQYKSSGYSDLLELVVTGHYWTPSLLAQASPVVTSGGYVTLQCESWHNDHKFILTVEGPQKLSWTQDSQYNYSTRKYHALFSVGPVTPNQRWICRCYSYDRNRPYVWSPPSESVELLVSGNLQKPTIKAEPGSVITSKRAMTIWCQGNLDAEVYFLHNEKSQKTQSTQTLQEPGNKGKFFIPSVTLQHAGQYRCYCYGSAGWSQPSDTLELVVTGIYEYYEPRLSVLPSPVVTAGGNMTLHCASDFPYDKFILTKEDKKFGNSLDTEHISSSGQYRALFIIGPTTPTHTGAFRCYGYYKNAPQLWSVPSALQQILISGLSKKPSLLTHQGHILDPGMTLTLQCFSDINYDRFALHKVGGADIMQHSSQQTDTGFSVANFTLGYVSSSTGGQYRCYGAHNLSSEWSASSEPLDILITGQLPLTPSLSVQPNHTVHSGETVSLLCWSMDSVDTFILSKEGSAQQPLRLKSKSHDQQSQAEFSMSAVTSHLSGTYRCYGAQDSSFYLLSSASAPVELTVSGPIETSTPPPTMSMPLGGLHMYLKALIGVSVAFILFLFIFIFILLRRRHRGKFRKDVQKEKDLQLSSGAEEPITRKGELQKRPNPAAATQEESLYASVEDMQTEDGVELNSWTPPEEDPQGETYAQVKPSRLRKAGHVSPSVMSREQLNTEYEQAEEGQGANNQAAESGESQDVTYAQLCSRTLRQGAAASPLSQAGEAPEEPSVYATLAAARPEAVPKDMEQ
- binding [5]: binds

B5: truncated ANGPTL8 A55-198, Flag-tagged (domain or fragment, UniProt Q8R1L8 55-198)
chain: ATEARLTEAGHSLGLYDRALEFLGTEVRQGQDATQELRTSLSEIQVEEDALHLRAEATARSLGEVARAQQALRDTVRRLQVQLRGAWLGQAHQEFETLKARADKQSHLLWALTGHVQRQQREMAEQQQWLRQIQQRLHTAALPA
- binding [4]: binds
